The other results are listed elsewhere or left out. Many values rest on one well or one pass, so single values are uncertain.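 The apoptosis fraction was the count of cleaved-PARP antibody-stained nuclei relative to all DNA-stained nuclei, imaged in 1,536-well plates. Screening doses were set so most cells survived, and baseline and induced cleaved-PARP levels vary greatly across cell lines.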
Legend:
Experiment in all cases: cleaved PARP positive nuclei fraction relative to DMSO control; melanoma cells; higher = more apoptosis
Settings in all cases: library dose: low library concentration; 72 h
MZ2-MEL = system: MZ2-MEL
MeWo = system: MeWo
RPMI7951 = system: RPMI7951
RVH-421 = system: RVH-421
SkMel28 = system: SkMel28
SkMel2 = system: SkMel2
SkMel30 = system: SkMel30
UACC62 = system: UACC62

Row | Compound | cleaved PARP positive nuclei fraction (MZ2-MEL) | cleaved PARP positive nuclei fraction (MeWo) | cleaved PARP positive nuclei fraction (RPMI7951) | cleaved PARP positive nuclei fraction (RVH-421) | cleaved PARP positive nuclei fraction (SkMel28) | cleaved PARP positive nuclei fraction (SkMel2) | cleaved PARP positive nuclei fraction (SkMel30) | cleaved PARP positive nuclei fraction (UACC62)
1 | CCN(CC)CCNC(=O)c1c(C)[nH]c(/C=C2\C(=O)Nc3ccc(F)cc32)c1C [sunitinib] + Nc1cccc2c1CN(C1CCC(=O)NC1=O)C2=O [lenalidomide] (first compound 0.4 µM, partner dose 1 µM) | 30.3% | 89.2% | 48.4% | 81.4% | 162% | 88.7% | 74.5% | 118%
2 | CCN(CC)CCNC(=O)c1c(C)[nH]c(/C=C2\C(=O)Nc3ccc(F)cc32)c1C [sunitinib] + Cc1cc(Nc2cc(N3CCN(C)CC3)nc(/C=C/c3ccccc3)n2)n[nH]1 [ENMD2076] (first compound 0.4 µM, partner dose 0.04 µM) | 142% | 33.7% | 141% | 120% | 69.5% | 24.3% | 73.6% | 121%
3 | CCCCCCCCc1ccc(CCC(N)(CO)CO)cc1 [fingolimod] + C=C(c1ccc(C(=O)O)cc1)c1cc2c(cc1C)C(C)(C)CCC2(C)C [Bexarotene] (first compound 2 µM, partner dose 2 µM) | 106% | 49.4% | 92.3% | 98.6% | 285% | 37.2% | 37.6% | 220%
4 | Cn1cnc2c(F)c(Nc3ccc(Br)cc3Cl)c(C(=O)NOCCO)cc21 [selumetinib] + CN(c1ncccc1CNc1nc(Nc2ccc3c(c2)CC(=O)N3)ncc1C(F)(F)F)S(C)(=O)=O [PF562271] (first compound 0.015 µM, partner dose 0.08 µM) | 441% | 191% | 149% | 157% | 83.7% | 99.5% | 167% | 435%
5 | COc1ccc(C2=N[C@@H](c3ccc(Cl)cc3)[C@@H](c3ccc(Cl)cc3)N2C(=O)N2CCNC(=O)C2)c(OC(C)C)c1 [Nutlin-3] + C[C@]1(O)C[C@@H](c2nc(-c3ccc4ccc(-c5ccccc5)nc4c3)c3c(N)nccn32)C1 [OSI906] (first compound 0.1 µM, partner dose 0.4 µM) | 69.5% | 102% | 68.6% | 46.8% | 96.2% | 230% | 58.4% | 149%
6 | NC(=O)c1ccc(N(C(N)=O)c2c(F)cccc2F)nc1-c1ccc(F)cc1F + NC1(c2ccc(-c3nc4ccn5c(=O)[nH]nc5c4cc3-c3ccccc3)cc2)CCC1 [MK2206] (first compound 0.4 µM, partner dose 0.4 µM) | 158% | 68.7% | 457% | 288% | 65.1% | 194% | 42.2% | 346%
7 | CC1(C)CCC(c2ccc(Cl)cc2)=C(CN2CCN(c3ccc(C(=O)NS(=O)(=O)c4ccc(N[C@H](CCN5CCOCC5)CSc5ccccc5)c(S(=O)(=O)C(F)(F)F)c4)cc3)CC2)C1 + Cn1sc(=O)n(Cc2ccccc2)c1=O [TDZD-8] (first compound 0.4 µM, partner dose 0.4 µM) | 350% | 462% | 255% | 94.2% | 91.4% | 189% | 155% | 40.4%
8 | Cn1cnc2c(F)c(Nc3ccc(Br)cc3Cl)c(C(=O)NOCCO)cc21 [selumetinib] + Nc1nc(F)nc2c1ncn2[C@@H]1O[C@H](CO)[C@@H](O)[C@@H]1O [fludarabine] (first compound 0.015 µM, partner dose 0.2 µM) | 93.2% | 337% | 96% | 142% | 230% | 1090% | 1350% | 69.3%
9 | Cn1sc(=O)n(Cc2ccccc2)c1=O + Cn1nnc2c(C(N)=O)ncn2c1=O [temozolomide] (first compound 0.4 µM, partner dose 2 µM) | 178% | 98.2% | 145% | 200% | 73.7% | 91.6% | 47.9% | 258%
10 | CS(=O)(=O)c1ccc(C(=O)Nc2ccc(Cl)c(-c3ccccn3)c2)c(Cl)c1 [vismodegib] + Cn1c(=O)n(-c2ccc(C(C)(C)C#N)cc2)c2c3cc(-c4cnc5ccccc5c4)ccc3ncc21 [NVP-BEZ235] (first compound 1 µM, partner dose 0.004 µM) | 63.1% | 75.5% | 132% | 36.1% | 39.9% | 94.2% | 90.9% | 108%
11 | C[C@@H](N)c1ccc(C(=O)Nc2ccnc3[nH]ccc23)cc1 + C[C@]1(O)C[C@@H](c2nc(-c3ccc4ccc(-c5ccccc5)nc4c3)c3c(N)nccn32)C1 [OSI906] (first compound 0.4 µM, partner dose 0.4 µM) | 206% | 124% | 481% | 329% | 130% | 73.5% | 272% | 595%
12 | C[C@@H](N)c1ccc(C(=O)Nc2ccnc3[nH]ccc23)cc1 + CN1CCN(c2ccc3nc(-c4c(N)c5c(F)cccc5[nH]c4=O)[nH]c3c2)CC1 [Dovitinib] (first compound 0.4 µM, partner dose 0.1 µM) | 271% | 108% | 146% | 59.3% | 98.1% | 159% | 112% | 60.1%
13 | CC1(C)CCC(c2ccc(Cl)cc2)=C(CN2CCN(c3ccc(C(=O)NS(=O)(=O)c4ccc(N[C@H](CCN5CCOCC5)CSc5ccccc5)c(S(=O)(=O)C(F)(F)F)c4)cc3)CC2)C1 + Nc1ncn([C@H]2C[C@H](O)[C@@H](CO)O2)c(=O)n1 [decitabine] (first compound 0.4 µM, partner dose 0.1 µM) | 158% | 446% | 65.8% | 105% | 42.9% | 180% | 98.7% | 69.2%
14 | Cn1cnc2c(F)c(Nc3ccc(Br)cc3Cl)c(C(=O)NOCCO)cc21 [selumetinib] + CS(=O)(=O)CCNCc1ccc(-c2ccc3ncnc(Nc4ccc(OCc5cccc(F)c5)c(Cl)c4)c3c2)o1 [lapatinib] (first compound 0.015 µM, partner dose 0.8 µM) | 243% | 131% | 141% | 165% | 218% | 199% | 107% | 241%
15 | CN(c1ncccc1CNc1nc(Nc2ccc3c(c2)CC(=O)N3)ncc1C(F)(F)F)S(C)(=O)=O + NC1(c2ccc(-c3nc4ccn5c(=O)[nH]nc5c4cc3-c3ccccc3)cc2)CCC1 [MK2206] (first compound 0.08 µM, partner dose 0.4 µM) | 205% | 62.4% | 48.1% | 127% | 29.5% | 123% | 159% | 55.1%
16 | CC(=O)O[C@@]12CO[C@@H]1C[C@H](O)[C@@]1(C)C(=O)[C@H](O)C3=C(C)[C@@H](OC(=O)[C@H](O)[C@@H](NC(=O)OC(C)(C)C)c4ccccc4)C[C@@](O)([C@@H](OC(=O)c4ccccc4)[C@H]21)C3(C)C [Docetaxel] + Cn1nnc2c(C(N)=O)ncn2c1=O [temozolomide] (first compound 0.0001 µM, partner dose 2 µM) | 679% | 816% | 276% | 98.8% | 261% | 1120% | 709% | 369%
17 | CC1(C)CCC(c2ccc(Cl)cc2)=C(CN2CCN(c3ccc(C(=O)NS(=O)(=O)c4ccc(N[C@H](CCN5CCOCC5)CSc5ccccc5)c(S(=O)(=O)C(F)(F)F)c4)cc3)CC2)C1 + COc1ccc(C2=N[C@@H](c3ccc(Cl)cc3)[C@@H](c3ccc(Cl)cc3)N2C(=O)N2CCNC(=O)C2)c(OC(C)C)c1 [Nutlin-3] (first compound 0.4 µM, partner dose 0.1 µM) | 175% | 186% | 255% | 134% | 92.4% | 160% | 130% | 82.4%

Nos. 12 through 13, reprinted for reference:
Row | Compound | cleaved PARP positive nuclei fraction (MZ2-MEL) | cleaved PARP positive nuclei fraction (MeWo) | cleaved PARP positive nuclei fraction (RPMI7951) | cleaved PARP positive nuclei fraction (RVH-421) | cleaved PARP positive nuclei fraction (SkMel28) | cleaved PARP positive nuclei fraction (SkMel2) | cleaved PARP positive nuclei fraction (SkMel30) | cleaved PARP positive nuclei fraction (UACC62)
12 | C[C@@H](N)c1ccc(C(=O)Nc2ccnc3[nH]ccc23)cc1 + CN1CCN(c2ccc3nc(-c4c(N)c5c(F)cccc5[nH]c4=O)[nH]c3c2)CC1 [Dovitinib] (first compound 0.4 µM, partner dose 0.1 µM) | 271% | 108% | 146% | 59.3% | 98.1% | 159% | 112% | 60.1%
13 | CC1(C)CCC(c2ccc(Cl)cc2)=C(CN2CCN(c3ccc(C(=O)NS(=O)(=O)c4ccc(N[C@H](CCN5CCOCC5)CSc5ccccc5)c(S(=O)(=O)C(F)(F)F)c4)cc3)CC2)C1 + Nc1ncn([C@H]2C[C@H](O)[C@@H](CO)O2)c(=O)n1 [decitabine] (first compound 0.4 µM, partner dose 0.1 µM) | 158% | 446% | 65.8% | 105% | 42.9% | 180% | 98.7% | 69.2%

— the supplement of paper PMC4604168 (melanoma cell lines)
